Results from article PMC9525061.
No constants are given. Whether binding was seen depends on the method and setting. For some of these results: In cells and extracts the contact can be indirect. Some entries that bind do so weakly or less than the wild type. Where a sequence is shown, tags or fusion partners need not be part of it.

Protein sequences, listed by entry. Tags and fused reporters are not part of them. Residues count along the entry.
UniProt O22476, residues 24-1196: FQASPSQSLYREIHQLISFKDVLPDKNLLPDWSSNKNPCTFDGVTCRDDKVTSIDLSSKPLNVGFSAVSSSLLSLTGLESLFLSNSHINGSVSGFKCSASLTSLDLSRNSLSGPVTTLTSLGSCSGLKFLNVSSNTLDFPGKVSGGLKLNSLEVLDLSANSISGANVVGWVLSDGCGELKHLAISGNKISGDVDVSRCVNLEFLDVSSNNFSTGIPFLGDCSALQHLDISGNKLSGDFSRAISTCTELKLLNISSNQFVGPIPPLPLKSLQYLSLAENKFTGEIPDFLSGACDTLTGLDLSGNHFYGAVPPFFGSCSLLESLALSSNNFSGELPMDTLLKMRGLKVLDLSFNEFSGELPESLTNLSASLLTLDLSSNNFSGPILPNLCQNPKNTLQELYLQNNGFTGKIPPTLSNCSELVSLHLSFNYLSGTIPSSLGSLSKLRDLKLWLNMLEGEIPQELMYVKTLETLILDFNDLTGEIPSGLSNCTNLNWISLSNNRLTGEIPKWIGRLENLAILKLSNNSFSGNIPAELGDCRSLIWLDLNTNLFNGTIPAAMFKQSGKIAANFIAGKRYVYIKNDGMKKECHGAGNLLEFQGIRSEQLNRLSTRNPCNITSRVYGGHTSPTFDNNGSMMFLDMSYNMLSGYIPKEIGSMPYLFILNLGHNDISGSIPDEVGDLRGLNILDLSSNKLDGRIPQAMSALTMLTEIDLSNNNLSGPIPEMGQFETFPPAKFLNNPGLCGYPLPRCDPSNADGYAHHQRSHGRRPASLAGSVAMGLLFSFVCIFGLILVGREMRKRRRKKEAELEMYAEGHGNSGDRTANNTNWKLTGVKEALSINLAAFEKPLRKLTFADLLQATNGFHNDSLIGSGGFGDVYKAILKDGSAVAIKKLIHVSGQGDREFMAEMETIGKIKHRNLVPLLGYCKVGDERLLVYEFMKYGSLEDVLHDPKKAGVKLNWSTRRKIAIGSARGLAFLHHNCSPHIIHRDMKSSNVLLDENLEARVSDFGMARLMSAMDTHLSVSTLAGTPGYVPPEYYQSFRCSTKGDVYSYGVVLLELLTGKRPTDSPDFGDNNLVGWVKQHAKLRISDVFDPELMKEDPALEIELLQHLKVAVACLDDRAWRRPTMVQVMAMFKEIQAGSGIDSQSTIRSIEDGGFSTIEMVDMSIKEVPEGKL

T1: CNGC10-GFP (donor fusion for FRET-FLIM) (Arabidopsis thaliana) (UniProt Q9LNJ0)
T1 sequence: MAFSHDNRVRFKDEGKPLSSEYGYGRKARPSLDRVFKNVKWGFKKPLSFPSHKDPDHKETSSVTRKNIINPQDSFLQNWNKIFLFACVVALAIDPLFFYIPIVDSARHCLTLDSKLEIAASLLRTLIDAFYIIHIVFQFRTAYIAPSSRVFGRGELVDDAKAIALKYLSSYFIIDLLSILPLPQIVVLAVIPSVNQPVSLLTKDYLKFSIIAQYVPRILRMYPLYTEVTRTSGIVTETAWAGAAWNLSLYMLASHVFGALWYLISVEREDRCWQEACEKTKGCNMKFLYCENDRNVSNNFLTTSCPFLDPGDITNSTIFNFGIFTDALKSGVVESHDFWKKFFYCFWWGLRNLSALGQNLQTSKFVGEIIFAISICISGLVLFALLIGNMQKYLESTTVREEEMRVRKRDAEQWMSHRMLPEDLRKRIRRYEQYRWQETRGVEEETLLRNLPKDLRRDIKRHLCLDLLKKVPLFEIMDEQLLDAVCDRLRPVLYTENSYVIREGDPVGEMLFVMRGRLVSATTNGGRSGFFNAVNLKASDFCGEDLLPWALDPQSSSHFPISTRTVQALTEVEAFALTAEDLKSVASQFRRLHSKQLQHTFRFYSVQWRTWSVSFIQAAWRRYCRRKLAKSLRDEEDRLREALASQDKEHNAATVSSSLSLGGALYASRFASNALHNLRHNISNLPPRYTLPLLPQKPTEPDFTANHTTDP

T2: CNGC10 (cyclic nucleotide-gated ion channel 10), Cub fusion for the mating-based split-ubiquitin system (Arabidopsis thaliana) (UniProt Q9LNJ0)
T2 sequence: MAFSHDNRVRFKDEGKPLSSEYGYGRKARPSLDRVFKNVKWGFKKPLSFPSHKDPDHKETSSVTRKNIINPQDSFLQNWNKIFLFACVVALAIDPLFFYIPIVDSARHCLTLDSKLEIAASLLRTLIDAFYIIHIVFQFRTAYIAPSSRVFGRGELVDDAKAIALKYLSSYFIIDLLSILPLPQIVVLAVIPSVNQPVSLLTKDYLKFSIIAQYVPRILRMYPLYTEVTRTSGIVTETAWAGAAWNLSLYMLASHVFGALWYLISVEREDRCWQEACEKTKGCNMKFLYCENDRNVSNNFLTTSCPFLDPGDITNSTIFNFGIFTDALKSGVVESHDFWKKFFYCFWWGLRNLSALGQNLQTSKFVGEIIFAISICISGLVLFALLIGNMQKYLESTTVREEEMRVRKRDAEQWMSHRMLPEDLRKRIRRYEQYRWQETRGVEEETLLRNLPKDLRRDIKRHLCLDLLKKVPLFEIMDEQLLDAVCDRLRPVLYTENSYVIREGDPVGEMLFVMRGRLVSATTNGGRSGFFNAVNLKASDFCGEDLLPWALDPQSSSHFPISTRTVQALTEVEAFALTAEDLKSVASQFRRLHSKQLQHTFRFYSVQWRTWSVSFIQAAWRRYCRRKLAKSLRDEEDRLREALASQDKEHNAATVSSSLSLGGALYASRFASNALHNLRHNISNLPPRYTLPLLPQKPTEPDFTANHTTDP


Legend:
[1] = molecular target: T1, CNGC10-GFP (donor fusion for FRET-FLIM) (Arabidopsis thaliana); test: FRET or BRET; FRET-FLIM; CNGC10-GFP donor with RFP or mCherry acceptor fusions in transiently transformed Nicotiana benthamiana epidermal leaf cells, 2-3 days after infiltration; reduction of the GFP fluorescence lifetime
[2] = molecular target: T2, CNGC10 (cyclic nucleotide-gated ion channel 10), Cub fusion for the mating-based split-ubiquitin system (Arabidopsis thaliana); test: two-hybrid; yeast mating-based split-ubiquitin system (mbSUS); Cub (pMetYC) and Nub (pXNubA22) fusions; growth on interaction selective plates (CSM -Leu -Trp -Ura -Met, -Ade, -His) with 5 µM and 500 µM methionine, 72 hr at 28 °C

Row | Molecule | binding [1] | binding [2]
1 | BRI1, RFP or mCherry acceptor fusion for FRET-FLIM (from UniProt O22476 24-1196) (receptor) | binds | –
2 | BAK1, RFP or mCherry acceptor fusion for FRET-FLIM (receptor, UniProt Q94F62 26-615) NAEGDALSALKNSLADPNKVLQSWDATLVTPCTWFHVTCNSDNSVTRVDLGNANLSGQLVMQLGQLPNLQYLELYSNNITGTIPEQLGNLTELVSLDLYLNNLSGPIPSTLGRLKKLRFLRLNNNSLSGEIPRSLTAVLTLQVLDLSNNPLTGDIPVNGSFSLFTPISFANTKLTPLPASPPPPISPTPPSPAGSNRITGAIAGGVAAGAALLFAVPAIALAWWRRKKPQDHFFDVPAEEDPEVHLGQLKRFSLRELQVASDNFSNKNILGRGGFGKVYKGRLADGTLVAVKRLKEERTQGGELQFQTEVEMISMAVHRNLLRLRGFCMTPTERLLVYPYMANGSVASCLRERPESQPPLDWPKRQRIALGSARGLAYLHDHCDPKIIHRDVKAANILLDEEFEAVVGDFGLAKLMDYKDTHVTTAVRGTIGHIAPEYLSTGKSSEKTDVFGYGVMLLELITGQRAFDLARLANDDDVMLLDWVKGLLKEKKLEALVDVDLQGNYKDEEVEQLIQVALLCTQSSPMERPKMSEVVRMLEGDGLAERWEEWQKEEMFRQDFNYPTHHPAVSGWIIGDSTSQIENEYPSGPR | binds | –

Continued, values first:

Row | binding [1] | binding [2] | Molecule
3 | – | binds | CNGC10 (cyclic nucleotide-gated ion channel 10), Cub fusion for the mating-based split-ubiquitin system (protein, UniProt Q9LNJ0 1-711) MAFSHDNRVRFKDEGKPLSSEYGYGRKARPSLDRVFKNVKWGFKKPLSFPSHKDPDHKETSSVTRKNIINPQDSFLQNWNKIFLFACVVALAIDPLFFYIPIVDSARHCLTLDSKLEIAASLLRTLIDAFYIIHIVFQFRTAYIAPSSRVFGRGELVDDAKAIALKYLSSYFIIDLLSILPLPQIVVLAVIPSVNQPVSLLTKDYLKFSIIAQYVPRILRMYPLYTEVTRTSGIVTETAWAGAAWNLSLYMLASHVFGALWYLISVEREDRCWQEACEKTKGCNMKFLYCENDRNVSNNFLTTSCPFLDPGDITNSTIFNFGIFTDALKSGVVESHDFWKKFFYCFWWGLRNLSALGQNLQTSKFVGEIIFAISICISGLVLFALLIGNMQKYLESTTVREEEMRVRKRDAEQWMSHRMLPEDLRKRIRRYEQYRWQETRGVEEETLLRNLPKDLRRDIKRHLCLDLLKKVPLFEIMDEQLLDAVCDRLRPVLYTENSYVIREGDPVGEMLFVMRGRLVSATTNGGRSGFFNAVNLKASDFCGEDLLPWALDPQSSSHFPISTRTVQALTEVEAFALTAEDLKSVASQFRRLHSKQLQHTFRFYSVQWRTWSVSFIQAAWRRYCRRKLAKSLRDEEDRLREALASQDKEHNAATVSSSLSLGGALYASRFASNALHNLRHNISNLPPRYTLPLLPQKPTEPDFTANHTTDP
4 | – | binds | BAK1 (BRI1-activating kinase 1), fusion for the mating-based split-ubiquitin system (receptor, UniProt Q94F62 26-615) NAEGDALSALKNSLADPNKVLQSWDATLVTPCTWFHVTCNSDNSVTRVDLGNANLSGQLVMQLGQLPNLQYLELYSNNITGTIPEQLGNLTELVSLDLYLNNLSGPIPSTLGRLKKLRFLRLNNNSLSGEIPRSLTAVLTLQVLDLSNNPLTGDIPVNGSFSLFTPISFANTKLTPLPASPPPPISPTPPSPAGSNRITGAIAGGVAAGAALLFAVPAIALAWWRRKKPQDHFFDVPAEEDPEVHLGQLKRFSLRELQVASDNFSNKNILGRGGFGKVYKGRLADGTLVAVKRLKEERTQGGELQFQTEVEMISMAVHRNLLRLRGFCMTPTERLLVYPYMANGSVASCLRERPESQPPLDWPKRQRIALGSARGLAYLHDHCDPKIIHRDVKAANILLDEEFEAVVGDFGLAKLMDYKDTHVTTAVRGTIGHIAPEYLSTGKSSEKTDVFGYGVMLLELITGQRAFDLARLANDDDVMLLDWVKGLLKEKKLEALVDVDLQGNYKDEEVEQLIQVALLCTQSSPMERPKMSEVVRMLEGDGLAERWEEWQKEEMFRQDFNYPTHHPAVSGWIIGDSTSQIENEYPSGPR
